These are yes or no findings as the source states them, for the method shown. In cells and extracts the contact can be indirect. Where a sequence is shown, tags or fusion partners need not be part of it.
Biological target: T1, rat nucleosome assembly protein 1 like 5 (rNap1l5-Flag) (rat) (UniProt Q5PPG6)
T1 sequence: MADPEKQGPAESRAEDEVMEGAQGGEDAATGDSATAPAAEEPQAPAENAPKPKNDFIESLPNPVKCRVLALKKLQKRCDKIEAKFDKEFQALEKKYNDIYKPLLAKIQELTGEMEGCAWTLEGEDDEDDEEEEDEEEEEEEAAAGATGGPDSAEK
Test: co-IP; HEK293T cells co-transfected with the plasmids; IP buffer 50mM Tris-HCl (pH 8.0), 150mM NaCl, 2mM EDTA, 1% NP-40, 5% glycerol; 1 μg antibody and protein A/G-agarose beads at 4°C overnight; blotted with the indicated primary antibodies

binding: no binding
Substance: rat nucleolar protein 6, full-length (Nol6)

Source: PMC8718910
